Paper PMC8096781
No constants are given. Whether binding was seen depends on the method and setting. Binding seen in cells or lysates may run through a third protein. A yes stands for co-enrichment or nearness to the bait. Other partners may have been found. Where a sequence is shown, tags or fusion partners need not be part of it.

Sequences of proteins named here, by UniProt entry; tags and fusion partners are left off.
UniProt P14618: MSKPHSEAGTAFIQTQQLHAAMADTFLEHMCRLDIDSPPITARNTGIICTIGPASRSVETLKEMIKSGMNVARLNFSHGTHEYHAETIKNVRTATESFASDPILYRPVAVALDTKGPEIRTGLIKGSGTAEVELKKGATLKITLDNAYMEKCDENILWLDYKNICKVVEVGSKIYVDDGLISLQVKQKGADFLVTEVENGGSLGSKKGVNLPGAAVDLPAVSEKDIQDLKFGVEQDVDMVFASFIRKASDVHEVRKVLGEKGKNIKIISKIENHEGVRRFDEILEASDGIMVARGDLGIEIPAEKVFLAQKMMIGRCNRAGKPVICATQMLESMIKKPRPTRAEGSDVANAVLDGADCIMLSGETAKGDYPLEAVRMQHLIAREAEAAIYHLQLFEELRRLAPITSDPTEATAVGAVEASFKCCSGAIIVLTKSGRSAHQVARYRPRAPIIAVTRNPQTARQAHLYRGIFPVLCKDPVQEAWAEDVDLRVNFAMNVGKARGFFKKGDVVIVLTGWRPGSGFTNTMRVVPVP

Molecular target: T1, Flag-FOXM1D (overexpressed in HeLa cells) (UniProt Q08050)
T1 sequence: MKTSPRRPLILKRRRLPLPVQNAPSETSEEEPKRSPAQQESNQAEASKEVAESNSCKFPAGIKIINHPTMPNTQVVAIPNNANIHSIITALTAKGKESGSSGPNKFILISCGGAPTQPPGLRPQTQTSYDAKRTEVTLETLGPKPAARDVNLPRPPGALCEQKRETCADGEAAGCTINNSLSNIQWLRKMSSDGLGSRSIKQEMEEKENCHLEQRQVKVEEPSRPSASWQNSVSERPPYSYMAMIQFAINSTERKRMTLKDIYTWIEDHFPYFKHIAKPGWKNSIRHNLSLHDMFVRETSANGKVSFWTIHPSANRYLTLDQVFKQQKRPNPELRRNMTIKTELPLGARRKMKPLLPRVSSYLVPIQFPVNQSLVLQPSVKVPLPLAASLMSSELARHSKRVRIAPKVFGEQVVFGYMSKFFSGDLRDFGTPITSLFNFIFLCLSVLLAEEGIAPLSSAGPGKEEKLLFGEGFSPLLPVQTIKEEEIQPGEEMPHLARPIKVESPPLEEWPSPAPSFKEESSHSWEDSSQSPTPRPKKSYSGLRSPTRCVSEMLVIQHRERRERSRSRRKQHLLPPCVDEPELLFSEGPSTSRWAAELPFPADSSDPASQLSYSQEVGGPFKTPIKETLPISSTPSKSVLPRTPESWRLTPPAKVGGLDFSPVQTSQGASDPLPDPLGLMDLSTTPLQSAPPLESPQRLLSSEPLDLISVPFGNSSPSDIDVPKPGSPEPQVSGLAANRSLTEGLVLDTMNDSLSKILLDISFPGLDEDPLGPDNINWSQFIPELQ
Test: affinity purification with mass spectrometry; Co-IP with rabbit anti-Flag antibody or rabbit control IgG isotype antibody from HeLa cells overexpressing Flag-FOXM1D, then LC-MS/MS

binding: binds
Substance: endogenous PKM2 (HeLa cells) (from UniProt P14618 1-531) (enzyme)
